Data on one substance can be found in publication PMC4119924.

Amino acid sequences for entries named in this document (tags omitted). A change or cut given only in a name is not applied to a line headed by its entry.
UniProt Q9BST9: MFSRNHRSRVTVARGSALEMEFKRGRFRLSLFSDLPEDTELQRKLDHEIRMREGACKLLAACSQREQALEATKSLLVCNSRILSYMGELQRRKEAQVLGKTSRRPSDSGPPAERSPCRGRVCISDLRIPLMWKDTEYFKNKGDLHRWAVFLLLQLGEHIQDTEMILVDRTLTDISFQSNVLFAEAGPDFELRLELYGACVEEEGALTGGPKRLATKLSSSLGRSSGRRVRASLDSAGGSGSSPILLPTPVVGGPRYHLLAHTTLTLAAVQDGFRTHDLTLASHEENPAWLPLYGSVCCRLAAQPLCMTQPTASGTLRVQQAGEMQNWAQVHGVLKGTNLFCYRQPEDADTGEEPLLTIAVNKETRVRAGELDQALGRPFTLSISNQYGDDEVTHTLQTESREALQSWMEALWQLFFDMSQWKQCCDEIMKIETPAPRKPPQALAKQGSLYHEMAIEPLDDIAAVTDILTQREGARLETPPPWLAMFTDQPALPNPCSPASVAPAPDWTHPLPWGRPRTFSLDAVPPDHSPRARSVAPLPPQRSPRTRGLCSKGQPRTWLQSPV
UniProt P61589: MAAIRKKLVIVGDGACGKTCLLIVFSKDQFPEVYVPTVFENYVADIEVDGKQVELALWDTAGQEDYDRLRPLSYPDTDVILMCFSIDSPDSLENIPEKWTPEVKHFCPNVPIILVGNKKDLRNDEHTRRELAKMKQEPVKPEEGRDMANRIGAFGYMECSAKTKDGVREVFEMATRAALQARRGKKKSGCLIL

The target in this assay is GST-fused Rho-binding domain of Rhotekin (UniProt Q9BST9). Nature of the assay: pull-down; GST-rhotekin Rho-binding domain on glutathione-Sepharose beads incubated 1 h with VSMC lysates; bound proteins immunoblotted with anti-RhoA; cells treated beforehand with ADMA (0-30 uM, 30 min), SDMA, L-arginine, Y27632 or DDAH2 overexpression; only the target purified. Background: A western blot detects proteins with antibodies after separation by electrophoresis.

Results are given in words; binding and its absence hold for the method and conditions named. Binding seen in cells or lysates may run through a third protein. A result given as binding can be weak or reduced; the word gives no strength.

As to RhoA (from UniProt P61589 1-193), the binding result is “binds”.
